Record: PubChem BioAssay AID1259254 (NCATS, 2017)

Screen: 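Gene knock-downs that lead to re-replication, shown by excess G2 DNA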 (primary screen)
System: human HCT116 colorectal cancer cells
Reagents: single siRNA against human genes
Timing: 3 days
Read-out: 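Imaged Hoechst DNA stain sorts each cell into a cycle phase by DNA amount; per plate, G2 fraction set to 0% for non-targeting and 100% for GMNN siRNA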
Direction: G2 robust z-score and G2 cells, % of GMNN control: higher = more G2 cells, more excess DNA replication
Hit rule: 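An siRNA counts as active if its G2 robust z-score lies at least 5 MADs above the screen median; here such calls match roughly 38% of GMNN control or more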
Here is a random part of about 59,000 reagents tested. In the full data, about 1,550 (2.6%) were called active. 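G2 share is only a proxy for re-replication; each gene was hit by three separate siRNAs, and active genes were retested.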 The numbers tell different reagents against one gene apart. Further read-outs or replicates are left out here. No sequences are given here. Not given: the amount of reagent.

ACVR2B #1: G2 robust z-score = -0.552; G2 cells, % of GMNN control = -0.913; outcome = inactive
ACVR2B #2: G2 robust z-score = 0.262; G2 cells, % of GMNN control = 4.81; outcome = inactive
ACVR2B #3: G2 robust z-score = -0.936; G2 cells, % of GMNN control = -3.62; outcome = inactive
ZNF286A #1: G2 robust z-score = -0.244; G2 cells, % of GMNN control = 1.25; outcome = inactive
ZNF286A #2: G2 robust z-score = -0.746; G2 cells, % of GMNN control = -2.28; outcome = inactive
ZNF286A #3: G2 robust z-score = -1.35; G2 cells, % of GMNN control = -6.56; outcome = inactive
CFAP95 #1: G2 robust z-score = 0.988; G2 cells, % of GMNN control = 9.92; outcome = inactive
CFAP95 #2: G2 robust z-score = -0.331; G2 cells, % of GMNN control = 0.635; outcome = inactive
CFAP95 #3: G2 robust z-score = -0.36; G2 cells, % of GMNN control = 0.437; outcome = inactive
SGCA #1: G2 robust z-score = 0.183; G2 cells, % of GMNN control = 4.25; outcome = inactive
SGCA #2: G2 robust z-score = 0.746; G2 cells, % of GMNN control = 8.22; outcome = inactive
SGCA #3: G2 robust z-score = 0.0436; G2 cells, % of GMNN control = 3.27; outcome = inactive
HBE1 #1: G2 robust z-score = -0.56; G2 cells, % of GMNN control = -0.971; outcome = inactive
HBE1 #2: G2 robust z-score = 2.92; G2 cells, % of GMNN control = 23.5; outcome = inactive
HBE1 #3: G2 robust z-score = 0.0962; G2 cells, % of GMNN control = 3.64; outcome = inactive
TAAR5 #1: G2 robust z-score = -0.537; G2 cells, % of GMNN control = -0.811; outcome = inactive
TAAR5 #2: G2 robust z-score = -0.543; G2 cells, % of GMNN control = -0.852; outcome = inactive
TAAR5 #3: G2 robust z-score = 1.32; G2 cells, % of GMNN control = 12.3; outcome = inactive
PKN1 #1: G2 robust z-score = -1.17; G2 cells, % of GMNN control = -5.29; outcome = inactive
PKN1 #2: G2 robust z-score = -0.859; G2 cells, % of GMNN control = -3.08; outcome = inactive
PKN1 #3: G2 robust z-score = -0.152; G2 cells, % of GMNN control = 1.9; outcome = inactive
STX6 #1: G2 robust z-score = -1.64; G2 cells, % of GMNN control = -8.56; outcome = inactive
STX6 #2: G2 robust z-score = 0.406; G2 cells, % of GMNN control = 5.82; outcome = inactive
STX6 #3: G2 robust z-score = 2.26; G2 cells, % of GMNN control = 18.9; outcome = inactive

A portion from the list above:
CFAP95 #3: G2 robust z-score = -0.36; G2 cells, % of GMNN control = 0.437; outcome = inactive
SGCA #1: G2 robust z-score = 0.183; G2 cells, % of GMNN control = 4.25; outcome = inactive
SGCA #2: G2 robust z-score = 0.746; G2 cells, % of GMNN control = 8.22; outcome = inactive
SGCA #3: G2 robust z-score = 0.0436; G2 cells, % of GMNN control = 3.27; outcome = inactive
